Here are results for nine compounds from the supplement of paper PMC4604168 (melanoma cell lines).

Some of the results follow. Single values are uncertain, as repeats are few or missing.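 The apoptosis fraction was the count of cleaved-PARP antibody-stained nuclei relative to all DNA-stained nuclei, imaged in 1,536-well plates. Screening doses were set so most cells survived, and baseline and induced cleaved-PARP levels vary greatly across cell lines.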

Test systems include MeWo; RPMI7951; RVH-421; SkMel28; SkMel2; SkMel30; UACC62; WM115; WM1716; WM1745; WM3526; WM3619; WM451Lu; SkMel5; UACC257.
Assay in all cases: cleaved PARP positive nuclei fraction relative to DMSO control; melanoma cells; higher = more apoptosis
What all share (details): library dose: low library concentration; 72 h

In the case of `CC[C@]1(O)C[C@H]2CN(CCc3c([nH]c4ccccc34)[C@@](C(=O)OC)(c3cc4c(cc3OC)N(C=O)[C@H]3[C@@](O)(C(=O)OC)[C@H](OC(C)=O)[C@]5(CC)C=CCN6CC[C@]43[C@@H]65)C2)C1` [vincristine] + C=C(c1ccc(C(=O)O)cc1)c1cc2c(cc1C)C(C)(C)CCC2(C)C [Bexarotene] (first compound 0.0001 µM, partner dose 2 µM), the “cleaved PARP positive nuclei fraction” value was 106% with MeWo; 47.3% in the assay on RPMI7951; 66.2% with RVH-421; 111% with SkMel28; 139% in the assay on SkMel2; 130% in the assay with SkMel30. Further, the “cleaved PARP positive nuclei fraction” value in the assay with UACC62 came out at 51.3%; in the assay on WM115 it was 433%; with WM1716, 76%; in the assay with WM1745, 110%; in the assay on WM3526, 351%; in the assay on WM3619 it was 142%. The “cleaved PARP positive nuclei fraction” value in the assay with WM451Lu was 70.6%.
With `CC[C@]1(O)C[C@H]2CN(CCc3c([nH]c4ccccc34)[C@@](C(=O)OC)(c3cc4c(cc3OC)N(C=O)[C@H]3[C@@](O)(C(=O)OC)[C@H](OC(C)=O)[C@]5(CC)C=CCN6CC[C@]43[C@@H]65)C2)C1` [vincristine] + CC(=O)O[C@@]12CO[C@@H]1C[C@H](O)[C@@]1(C)C(=O)[C@H](O)C3=C(C)[C@@H](OC(=O)[C@H](O)[C@@H](NC(=O)OC(C)(C)C)c4ccccc4)C[C@@](O)([C@@H](OC(=O)c4ccccc4)[C@H]21)C3(C)C [Docetaxel] (first compound 0.0001 µM, partner dose 0.0001 µM), the “cleaved PARP positive nuclei fraction” value was 570% in the assay with MeWo; 225% with RPMI7951; 165% with RVH-421; 84.6% in the assay on SkMel28; 718% in the assay with SkMel2; 362% with SkMel30. Further, the “cleaved PARP positive nuclei fraction” value in the assay on UACC62 came out at 450%; with WM115, 1610%; in the assay with WM1716, 100%; in the assay on WM1745 it was 146%; with WM3526, 151%; in the assay with WM3619 it was 166%. For the same compound, the “cleaved PARP positive nuclei fraction” value with WM451Lu was 153%.
For the compound `O=C(Nc1cc(C(F)(F)F)cc(C(F)(F)F)c1)c1cc(Cl)ccc1O` + Nc1ncn([C@H]2C[C@H](O)[C@@H](CO)O2)c(=O)n1 [decitabine] (first compound 0.016 µM, partner dose 0.1 µM), the “cleaved PARP positive nuclei fraction” value came out at 105% in the assay with MeWo; 42% in the assay with RPMI7951; 91.9% with RVH-421; 38.4% with SkMel28; 84.4% in the assay on SkMel30; 175% in the assay on UACC62. Further, the “cleaved PARP positive nuclei fraction” value in the assay on WM115 stood at 90.6%; in the assay with WM1716, 40.6%; in the assay with WM1745, 112%; with WM3526 it was 289%; with WM3619 it was 78.6%; with WM451Lu, 49.8%.
With `Cc1cc(Nc2cc(N3CCN(C)CC3)nc(Sc3ccc(NC(=O)C4CC4)cc3)n2)n[nH]1` [Tozasertib] + Cc1cc(Nc2cc(N3CCN(C)CC3)nc(/C=C/c3ccccc3)n2)n[nH]1 [ENMD2076] (first compound 0.006 µM, partner dose 0.04 µM), the “cleaved PARP positive nuclei fraction” value in the assay with MeWo amounted to 86.4%; with RPMI7951, 135%; with RVH-421, 97.5%; with SkMel28, 78%; with SkMel2, 98%; with SkMel30, 97.8%. The “cleaved PARP positive nuclei fraction” value in the assay on UACC62 came to 129%; with WM115, 118%; in the assay on WM1716 it was 35%; in the assay on WM1745 it was 100%; in the assay on WM3526, 36.8%; with WM3619, 92.4%. In addition, the “cleaved PARP positive nuclei fraction” value with WM451Lu came out at 44.9%.
In the case of `O=C(Nc1cc(C(F)(F)F)cc(C(F)(F)F)c1)c1cc(Cl)ccc1O` + CCCCCCCCCCCC1=C(O)C(=O)C=C(O)C1=O [Embelin] (first compound 0.016 µM, partner dose 1.2 µM), the “cleaved PARP positive nuclei fraction” value in the assay on MeWo worked out at 40.7%; in the assay with RPMI7951, 66.1%; with RVH-421, 84.9%; in the assay with SkMel28, 35.8%; in the assay on SkMel30 it was 174%; in the assay on SkMel5 it was 159%. Further, the “cleaved PARP positive nuclei fraction” value was found to be 267% in the assay on UACC257; 107% in the assay on UACC62; 114% in the assay on WM115; 218% in the assay on WM1716; 90.1% in the assay with WM1745; 49.4% with WM3526. Besides, the results for the “cleaved PARP positive nuclei fraction” value with WM3619 and with WM451Lu were 90.8% and 244%, respectively.
Turning to `Cc1cc(Nc2cc(N3CCN(C)CC3)nc(Sc3ccc(NC(=O)C4CC4)cc3)n2)n[nH]1` [Tozasertib] + CC(C)CCN1c2nc(Nc3cc(F)c(O)c(F)c3)ncc2N(C)C(=O)C1C [BID1870] (first compound 0.006 µM, partner dose 0.2 µM), the “cleaved PARP positive nuclei fraction” value in the assay on MeWo worked out at 24.4%; in the assay with RPMI7951, 64.4%; in the assay on RVH-421 it was 50.1%; with SkMel28, 236%; in the assay with SkMel30 it was 312%; in the assay on SkMel5, 83.9%. Besides, the “cleaved PARP positive nuclei fraction” value worked out at 77.2% in the assay with UACC257; 88.1% in the assay with UACC62; 160% in the assay on WM115; 269% in the assay on WM1716; 98.3% in the assay with WM1745; 110% in the assay on WM3526. Further, the “cleaved PARP positive nuclei fraction” value came to 87.1% in the assay on WM3619 and 71.6% in the assay with WM451Lu.
With `Cc1cc(Nc2cc(N3CCN(C)CC3)nc(Sc3ccc(NC(=O)C4CC4)cc3)n2)n[nH]1` [Tozasertib] + Cc1cc(N2CCOCC2)cc2[nH]c(-c3c(NC[C@@H](O)c4cccc(Cl)c4)cc[nH]c3=O)nc12 [BMS536924] (first compound 0.006 µM, partner dose 0.2 µM), the “cleaved PARP positive nuclei fraction” value came to 55% with MeWo; 113% in the assay with RPMI7951; 56.1% in the assay with RVH-421; 22.5% with SkMel28; 63.9% in the assay with SkMel30; 145% in the assay on SkMel5. For the same compound, the “cleaved PARP positive nuclei fraction” value was determined as 31.8% with UACC257; 74.9% with UACC62; 104% with WM115; 79% with WM1716; 114% in the assay on WM1745; 125% in the assay on WM3526. Besides, the “cleaved PARP positive nuclei fraction” value with WM3619 stood at 101%; with WM451Lu, 56.9%.
As to `CC[C@]1(O)C[C@H]2CN(CCc3c([nH]c4ccccc34)[C@@](C(=O)OC)(c3cc4c(cc3OC)N(C=O)[C@H]3[C@@](O)(C(=O)OC)[C@H](OC(C)=O)[C@]5(CC)C=CCN6CC[C@]43[C@@H]65)C2)C1` [vincristine] + Cn1c(=O)n(-c2ccc(C(C)(C)C#N)cc2)c2c3cc(-c4cnc5ccccc5c4)ccc3ncc21 [NVP-BEZ235] (first compound 0.0001 µM, partner dose 0.004 µM), the “cleaved PARP positive nuclei fraction” value amounted to 178% with MeWo; 81% in the assay with RPMI7951; 142% in the assay with RVH-421; 115% in the assay on SkMel28; 136% in the assay with SkMel2; 662% in the assay with SkMel30. Also, the “cleaved PARP positive nuclei fraction” value in the assay on UACC62 worked out at 247%; in the assay on WM115, 1290%; in the assay on WM1716 it was 78.5%; in the assay with WM1745 it was 107%; in the assay with WM3526, 103%; with WM3619 it was 110%. Moreover, the “cleaved PARP positive nuclei fraction” value in the assay with WM451Lu was determined as 312%.
As to `COc1cc([C@@H]2c3cc4c(cc3[C@@H](O[C@@H]3O[C@@H]5CO[C@@H](C)O[C@H]5[C@H](O)[C@H]3O)[C@H]3COC(=O)[C@H]23)OCO4)cc(OC)c1O` [etoposide] + Cc1cn(-c2cc(NC(=O)c3ccc(C)c(Nc4nccc(-c5cccnc5)n4)c3)cc(C(F)(F)F)c2)cn1 [nilotinib] (first compound 0.02 µM, partner dose 0.2 µM), the “cleaved PARP positive nuclei fraction” value was 90.1% with MeWo; 221% in the assay on RVH-421; 123% in the assay on SkMel28; 67.9% in the assay with SkMel30; 70.9% with UACC62; 85.5% in the assay with WM115. In addition, the “cleaved PARP positive nuclei fraction” value with WM1716 worked out at 98.1%; in the assay on WM1745, 115%; in the assay with WM3526 it was 255%; with WM3619 it was 104%; in the assay on WM451Lu, 98.7%.
